PubChem BioAssay AID686937 | Drosophila RNAi Screening Center – 2013
The deposit covers about 23,000 reagents; below is an unselected part of those that have a named target and a result. 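Reduced-secretion tags in replicate 1 do not always agree with the z-scores; no criterion for assigning the tags was given.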 A plus sign joins genes that one reagent is predicted to hit. No sequences are given here. The record does not give: the amount of reagent.

Test: 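Genes whose loss weakens secretory pathway function in fly cells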 (primary screen)
Cells: Drosophila S2 cells expressing secreted horseradish peroxidase
Reagent: long dsRNA against Drosophila genes
Timing: about 5.5 days (5 days dsRNA, then 12 h reporter induction)
Challenge: reporter expression induced after 5 days of dsRNA, read 12 h later; inducer not stated
Detection: 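Chemiluminescent measurement of peroxidase in the medium 12 h after reporter induction, following 5 days of dsRNA, given as a z-score per plate; higher means more secretion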
Direction: z-score: higher = more reporter secreted into medium

gene knocked down	amplicon	z-score, replicate 1	z-score, replicate 2	z-score, replicate 3	z-score, replicate 4	phenotype, replicate 1
CG13113	DRSC02211	0.48	0.19			
CG8728	DRSC07251	0.02	0.17			
Ccdc56 + mtTFB1	DRSC10809	0.06	0.23	1.11	0.96	
Sap47	DRSC16850	0.43	0.28			
OstDelta	DRSC06980	-2.6	-2.9			reduced secretion
pyd3	DRSC15459	0.43	0.38	0.42	0.2	
pyd3	DRSC21640	-0.8	-0.35			
LysS	DRSC08677	0.42	0.4			
Ctps	DRSC09342	-1.82	-1.2			reduced secretion
Ctps	DRSC10728	0.07	0.26			
Ctps	DRSC10729	-1.73	-0.64			
CG32461	DRSC11594	0.48	0.24			
CG4456 + Hsp22	DRSC11187	0.32	0.73			
CG4456 + Hsp22	DRSC11192	0.43	0.35			
mgr	DRSC16099	0.09	-0.38			
Atg3	DRSC10736	-1.23	0.34	0.25	-0.16	
Atg3	DRSC21758	-0.82	-0.53			
Dhit	DRSC07411	0.29	0.31			
CG33769	DRSC11716	0.07	0.32			
cd	DRSC16157	0.46	0.12			
Ir52a	DRSC06262	0.5	0.5			
sns	DRSC06423	-2.47	-1.99			reduced secretion
sns	DRSC07687	-0.84	-0.53			
sns	DRSC07688	0.76	0.66			
sns	DRSC07689	0.23	0.02			
sns	DRSC07691	0.23	0.19			
sns	DRSC07692	-0.02	-0.18			
del	DRSC03170	0.02	0.26			
CG6724	DRSC02983	0.12	0.28			
CG8405	DRSC05599	0.38	0.58			
CG8405	DRSC07166	0.02	0.09			
kipf	DRSC15446	-2.87	0.32	0.62	-2.91	
kipf	DRSC22871	0.26	0.45			
Adat1	DRSC03479	-0.31	-0.12			
zpg	DRSC09702	0.35	0.34			
CG10907	DRSC09804	0.18	0.32			
daed	DRSC00299	0.3	0.38			
mod	DRSC16999	0.22	0.37			
CG2909	DRSC18241	0.38	0.78			
Etf-QO	DRSC06111	0.16	0.17			
CG7409	DRSC10842	0.25	0.19			
CG11322	DRSC02142	-0.08	0.16			
CG30416	DRSC04565	0.43	0.43			
CG9915	DRSC20217	-0.18	-0.11			
CG9915	DRSC21565	0.96	0.5			
CG13427	DRSC06389	0.59	0.49			
Arp53D	DRSC05923	0.45	0.54			
fz3	DRSC18779	0.28	0.28			
CG13077	DRSC02181	0.01	0.1			
CG3436	DRSC00605	-0.17	-0.92			
CG31115	DRSC13692	0.03	0.41			
prd	DRSC03597	0.58	0.41			
CG4286	DRSC04459	-0.11	0.09			
CG34251	DRSC09498	0.36	0.2			
CG34251	DRSC09500	0.17	0.2			
CG13705	DRSC08314	0.41	0.27			
CG13705	DRSC22691	-0.08	-0.64			
CG9663	DRSC00724	0.15	0.41			
CG30355	DRSC21958	0.22	0.74			
CG14180 (retired record)	DRSC10179	-0.71	-0.76			
CG18735	DRSC04312	-0.09	0.24			
CG46491	DRSC06565	0.52	0.42			
CG46491	DRSC06566	0.2	0.12			
S6KL	DRSC19349	0.23	0.2	0.01	-0.46	
S6KL	DRSC21578	-0.21	0.59			
snoRNA:Me28S-C3420b + RpS11	DRSC07396	0.27	0.2			
Shawl	DRSC02209	0.41	0.15			
Shawl	DRSC02748	0.5	0.63			
CG17600	DRSC20638	0.59	0.3			
CG17600	DRSC20640	0.27	0.31			
CG17600	DRSC22753	0.39	0.12			
CG5781	DRSC02893	0.39	0.33			
spn-F	DRSC14475	-0.24	-1.25			
Trp1	DRSC03465	0.32	0.48			
CG7728	DRSC10907	0.23	0.26			
Rpt6R	DRSC15431	0.28	0.3			
CG3906	DRSC04431	0.09	0.25			
CG31793	DRSC02605	0.24	0.25			
CG12159	DRSC06114	0.16	0.33			
Cyp317a1	DRSC07366	0.25	0.15			
RpS6	DRSC18712	-2.9	-3.04			reduced secretion
CG14757	DRSC06492	0.24	0.22			
